Results deposited as PubChem BioAssay AID1259254 (NCATS, 2017).

Purpose: 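Finding genes that stop cells copying their DNA twice in one cycle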 (primary screen)
Cell system: human HCT116 colorectal cancer cells
Knock-down reagent: single siRNA against human genes
Time to read-out: 3 days
Measurement: 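Imaged Hoechst DNA stain sorts each cell into a cycle phase by DNA amount; per plate, G2 fraction set to 0% for non-targeting and 100% for GMNN siRNA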
Reading the numbers: G2 robust z-score and G2 cells, % of GMNN control: higher = more G2 cells, more excess DNA replication; raw share of cells in G2: higher = larger share of cells with G2 DNA content
Call rule: 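An siRNA counts as active if its G2 robust z-score lies at least 5 MADs above the screen median; here such calls match roughly 38% of GMNN control or more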
The whole screen tested about 59,000 reagents; below is an unselected part. About 1,550 of all reagents (2.6%) count as active. 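G2 share is only a proxy for re-replication; each gene was hit by three separate siRNAs, and active genes were retested.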 Raw values are not corrected between plates. Reagent sequences are not shown. The record does not give: the amount of reagent.

target gene,PubChem SID,G2 robust z-score,"G2 cells, % of GMNN control",raw share of cells in G2 (%),Outcome
KMO,SID160720348,5.65,42.7,20,active
KMO,SID160720349,-1.35,-6.53,1.57,inactive
KMO,SID160732066,-0.00141,2.96,6.3,inactive
FGFBP3,SID160758016,-0.875,-3.19,2.76,inactive
FGFBP3,SID160758017,-0.637,-1.51,2.45,inactive
FGFBP3,SID160758018,1.81,15.7,8.54,inactive
PEX2,SID160715483,-0.0799,2.41,6,inactive
PEX2,SID160715484,0.409,5.84,6.53,inactive
PEX2,SID160715485,-1.01,-4.11,1.87,inactive
GLS,SID160771581,-0.695,-1.92,2.97,inactive
GLS,SID160771588,1.26,11.8,9.54,inactive
GLS,SID160771598,2.24,18.7,12.4,inactive
CENPBD2P,SID160748382,2.08,17.6,12.3,inactive
CENPBD2P,SID160748383,1.6,14.2,11,inactive
CENPBD2P,SID160748384,0.437,6.04,4.29,inactive
BPTF,SID160763776,6.25,46.9,22.3,active
BPTF,SID160763786,2.1,17.7,12,inactive
BPTF,SID160763797,1.93,16.5,9.55,inactive
SCRN3,SID160749051,-0.684,-1.84,3.78,inactive
SCRN3,SID160749052,0.68,7.75,8.08,inactive
SCRN3,SID160749054,2.43,20,7.99,inactive
C22orf31,SID160732832,-0.149,1.92,3.97,inactive
C22orf31,SID160736944,0.255,4.76,6.2,inactive
C22orf31,SID160736945,-0.747,-2.29,2.95,inactive
RACK1P1,SID160733823,0.0869,3.58,4.19,inactive
RACK1P1,SID160768919,2.36,19.6,11.1,inactive
RACK1P1,SID160768920,-0.545,-0.864,2.96,inactive
FAM153CP,SID160726380,0.211,4.46,5.26,inactive
FAM153CP,SID160726381,0.279,4.93,4.99,inactive
FAM153CP,SID160726382,0.0862,3.57,3.84,inactive
PGRMC2,SID160775450,0.327,5.27,7.98,inactive
PGRMC2,SID160775460,-0.649,-1.6,5.85,inactive
PGRMC2,SID160775471,0.599,7.18,6.16,inactive

Targets listed so far whose gene name begins with S or s (3):
target gene,PubChem SID,G2 robust z-score,"G2 cells, % of GMNN control",raw share of cells in G2 (%),Outcome
SCRN3,SID160749051,-0.684,-1.84,3.78,inactive
SCRN3,SID160749052,0.68,7.75,8.08,inactive
SCRN3,SID160749054,2.43,20,7.99,inactive

Next entries follow.
target gene,PubChem SID,G2 robust z-score,"G2 cells, % of GMNN control",raw share of cells in G2 (%),Outcome
OR14C36,SID160732427,-0.54,-0.831,2.28,inactive
OR14C36,SID160756573,0.143,3.97,5.67,inactive
OR14C36,SID160756574,-0.31,0.788,3.35,inactive
CASP14,SID160736601,-0.507,-0.602,5.35,inactive
CASP14,SID160736602,3.09,24.7,13.6,inactive
CASP14,SID160736603,-0.58,-1.11,3.49,inactive
NAB1,SID160777749,1.25,11.7,8.12,inactive
NAB1,SID160777750,2.44,20.1,14.3,inactive
NAB1,SID160777751,-0.135,2.02,3.84,inactive
IQCC,SID160744179,-0.805,-2.7,3.49,inactive
IQCC,SID160744180,0.279,4.93,6.18,inactive
IQCC,SID160744182,0.974,9.82,6.27,inactive
PLAC1,SID160729163,3.08,24.7,14.6,inactive
PLAC1,SID160729164,-0.0469,2.64,5.22,inactive
PLAC1,SID160729165,-0.896,-3.34,1.92,inactive
SLC27A2,SID160729714,3.24,25.8,16.9,inactive
SLC27A2,SID160729715,-0.796,-2.63,5.44,inactive
SLC27A2,SID160729716,-0.656,-1.65,3.31,inactive
ZNF467,SID160760314,-0.331,0.641,3.31,inactive
ZNF467,SID160760315,1.19,11.3,7.1,inactive
ZNF467,SID160760317,4.86,37.2,16.6,inactive
WDR41,SID160743359,-0.646,-1.58,3.92,inactive
WDR41,SID160743360,6.44,48.3,24.1,active
WDR41,SID160743361,0.436,6.03,5.06,inactive
CP,SID160747175,1.29,12,9.26,inactive
CP,SID160747185,9.5,69.8,30.5,active
CP,SID160747196,-0.0427,2.67,5.01,inactive
SPATA22,SID160752599,-0.83,-2.87,3.15,inactive
SPATA22,SID160752601,0.00214,2.98,4.34,inactive
SPATA22,SID160752602,0.157,4.07,3.64,inactive
DEFB127,SID160757918,-0.758,-2.36,3.04,inactive
DEFB127,SID160757919,0.747,8.22,5.45,inactive
DEFB127,SID160757920,-0.197,1.58,3.62,inactive
OTOR,SID160745283,0.927,9.49,8.09,inactive
OTOR,SID160745284,0.315,5.18,6.94,inactive
OTOR,SID160745286,1.99,17,8.41,inactive
